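Methionyl-tRNA synthetase (putative), Leishmania donovani (UniProt E9BF75). Primary screen of methionyl-tRNA synthetase; the read-out is not stated. The test concentration is not given. Values are per cent inhibition. About 68,000 compounds were tested under these conditions; 0.035% (about 24) showed 50% or more at least once.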

Sequences of proteins named here, by UniProt entry; tags and fusion partners are left off.
UniProt E9BF75, entry or part of it: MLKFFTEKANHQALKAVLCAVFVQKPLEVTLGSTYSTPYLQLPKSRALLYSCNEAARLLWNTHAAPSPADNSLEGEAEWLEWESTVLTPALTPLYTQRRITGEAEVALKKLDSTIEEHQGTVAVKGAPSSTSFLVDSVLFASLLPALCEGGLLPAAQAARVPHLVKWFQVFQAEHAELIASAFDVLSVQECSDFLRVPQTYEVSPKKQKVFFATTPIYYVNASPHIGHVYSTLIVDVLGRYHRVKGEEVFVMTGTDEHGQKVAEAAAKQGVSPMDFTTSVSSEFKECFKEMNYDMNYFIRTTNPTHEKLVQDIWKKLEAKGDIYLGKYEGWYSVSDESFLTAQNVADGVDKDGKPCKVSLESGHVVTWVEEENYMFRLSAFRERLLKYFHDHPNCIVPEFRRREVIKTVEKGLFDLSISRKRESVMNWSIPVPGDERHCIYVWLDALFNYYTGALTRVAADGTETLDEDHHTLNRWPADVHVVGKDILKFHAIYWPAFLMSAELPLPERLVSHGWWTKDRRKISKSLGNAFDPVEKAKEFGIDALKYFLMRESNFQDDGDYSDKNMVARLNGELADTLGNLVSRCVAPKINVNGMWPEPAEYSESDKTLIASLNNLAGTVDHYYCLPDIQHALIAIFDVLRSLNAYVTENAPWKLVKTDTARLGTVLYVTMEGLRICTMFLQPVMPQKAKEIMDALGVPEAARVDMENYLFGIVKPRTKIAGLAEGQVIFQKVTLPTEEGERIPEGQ

All values are in %. The record does not define 0% and 100%; most values in the screen are far below 50% and negative numbers occur (in some assays of this library far below -100). This is an unselected part of the compounds tested.

compound,Inhibition
Cc1noc(C)c1CNC(=O)N1CCC(OCC2CC2)CC1,2.128
Cn1nc(Cn2ccnc2)c2c1CN(Cc1ccoc1)C2,3.623
Cc1ccc(-c2cn[nH]c2C2CCCN(c3cc(N)ncn3)C2)cc1 (configuration not stated),19.85
CCOc1cccc(CN2CCCC(Nc3ccc(F)cc3)C2)c1O (configuration not stated),9.253
CCC(NC(=O)C1CCN(C(C)C)CC1)c1cn2cccnc2n1 (configuration not stated),3.249
CCOC(=O)N1CCC(Nc2cc(CC)nc3c(C)c(C)nn23)CC1,14.45
COc1ccc(C)cc1CN1CCCC1Cn1nc(C)nc1C (configuration not stated),20.83
CCCN1CCC(NC(=O)NCCc2nc(CC)c(C)s2)CC1,9.524
CN(C)CCNC(=O)c1cc(-c2cnc(N3CCOCC3)nc2)cn1C,15.42
COCCOc1ncccc1C(=O)N(C)c1ccc(OC)nc1,15.47
CSc1ccc(CN(C)Cc2noc(C(C)(C)C)n2)cc1,5.722
O=C(OCc1cccs1)c1cccc(C(=O)N2CCCC2)n1,9.929
Cn1nc(C(C)(C)C)cc1NC(=O)Cn1ccnc1,4.604
COC1CCN(c2ccc(F)cc2CN(C)S(C)(=O)=O)CC1,14.09
CCC(CC)NC(=O)c1ncn2c1CN(CC)S(=O)(=O)c1ccccc1-2,12.38
Cc1csc(N(C)C(=O)C2CC(=O)N(CCc3ccccc3)C2)n1 (configuration not stated),5.455
Cc1nc(CN2C[C@@H]3CN(C(=O)C4(C#N)CC4)C[C@@H]3C2=O)cs1,22.54
CCC(=O)N1CCCC(c2cc(Nc3ncccn3)nc(C)n2)C1 (configuration not stated),18.15
COc1ccc(CN2CCO[C@H]3[C@H](OCCN4CCCC4)CC[C@@H]32)cc1,6.301
COCCCN(CCOC)C(=O)Nc1ccccc1-n1cccn1,11.83
O=C(NCc1cc2n(n1)CCCNC2)C1(c2ccccc2)CCCCC1,12.1
O=C(NC1CCC1)C1CCC2(CN(C(=O)c3ccno3)C2)O1 (configuration not stated),9.42
CCN(CC)CCC(=O)N1CCc2c(nc(N(C)C)nc2N(C)C)C1,12.32
CCc1ncc(C(=O)N(CCOC)Cc2nccs2)cn1,6.4
O=C(NCC1(Sc2ccccc2)CC1)c1cc[nH]n1,17.72
CO[C@@H]1CCN(c2ncccn2)[C@H]1Cc1ccccc1,14.66
N#Cc1ccc(S(=O)(=O)N2CSCC2C(=O)NCC(F)(F)F)cc1 (configuration not stated),21.49
Cc1nn(C)c(C)c1CN1CCCC(c2ccc(C(=O)O)cc2)C1 (configuration not stated),15.97
CCN(CC)C(CNC(=O)c1cccnc1-n1cncn1)c1ccsc1 (configuration not stated),4.802
CN(C)c1ncccc1CNC(=O)N(Cc1ccccc1F)C1CC1,14.38
CCC(=O)N1CCCCC1c1nc(O)c2c(n1)CN(S(=O)(=O)CC)CC2 (configuration not stated),13.71
O=C(c1cc(=O)c(OCc2ccccc2)co1)N1CCSCC1,6.997
CC(C)n1cc(CN(Cc2ccc(F)cc2)CC2CCCO2)cn1 (configuration not stated),9.214
Cc1cc(CN(C)C(=O)C2CC(=O)N(Cc3cccnc3)C2)on1 (configuration not stated),10.41
CN1CCC(c2nnc3n2CCN(S(=O)(=O)c2ccccc2)C3)CC1,8.723
CC(C)c1n[nH]c(C2CN(CCc3cccs3)CCO2)n1 (configuration not stated),10.93
CC(C)c1nc2n(n1)CC(NCc1nc(C3CC3)no1)CC2 (configuration not stated),12.58
CN(C)Cc1ccnc(C2CN(Cc3nccs3)CCO2)n1 (configuration not stated),10.17
CCc1nnc(Nc2cccc(C3CCN(CC4CC4)CC3)n2)s1,10.36
CC(=O)c1ccc(S(=O)(=O)N2CCC(c3n[nH]c(C)n3)CC2)cc1,10.03
CC1CCN(c2nc3c(cnn3-c3ccccc3)c(=O)[nH]2)CC1,15.24
Fc1ccccc1CN(CCCn1ccnc1)CC1CCOC1 (configuration not stated),8.571
Cc1cnc(C(=O)N2CCC3(CC2)CC(c2ccncc2)C(=O)N3)cn1 (configuration not stated),17.78
Cc1cc(F)ccc1CN1CCCC(O)(CN2CCCC2)C1 (configuration not stated),14.08
Nc1nc2c(c(N3CCCC(CN4CCCC4=O)C3)n1)CCNCC2 (configuration not stated),3.191
CCN(CCn1cccn1)Cc1nc(-c2cc(F)ccc2F)oc1C,7.865
Cc1nc(CC(=O)N2CCN(C(C)c3ccccc3F)CC2)cs1 (configuration not stated),7.219
CCc1cc(=O)n(CC(=O)NCC2CCCO2)c(-c2cccc(F)c2)n1 (configuration not stated),7.692
COc1ccc(CN2CCOCC3(CCN(C4CCOCC4)C3)C2)cc1 (configuration not stated),8.497
O=C(CS(=O)(=O)Cc1cc(Cl)c2c(c1)OCO2)N1CCCCCC1,14.25
CN(C)S(=O)(=O)NC1CC(=O)N(c2ccccc2Cl)C1 (configuration not stated),9.382
CCOc1ccccc1NC(=O)CN(C)Cc1ccccc1Cl,10.14
NC(=O)C1CCN(C(=O)NCc2cccnc2OC2CCCC2)C1 (configuration not stated),17.32
O=C(NCc1ccccc1)N1CCC2(CC(=O)N(c3ccccc3)C2)C1 (configuration not stated),8.654
Cc1nnc(N2CCCC3(CN(c4ccccn4)CCO3)C2)o1 (configuration not stated),12.32
CSCCC(Nc1nc(C)cc(C)n1)C(=O)NC1CCCC1 (configuration not stated),18.06
CS(=O)(=O)N1CCCC12CCCN(S(=O)(=O)c1cc(F)cc(F)c1)C2 (configuration not stated),5.576
Cc1cccc(C(=O)N2CCN(CCOC(C)C)CC2)n1,15.96
Cc1ccc(-n2cc(C)cn2)c(NC(=O)NC2(C)CCOC2)c1 (configuration not stated),10.57
Cc1noc(C)c1CN(C)c1ncnc2ccccc12,11.42
O=C(CCc1cc2n(n1)CCCNC2)NCCCSC1CCCCC1,16.09
CC(C)n1ncc2cc(NC(=O)N3CCSCC3)cnc21,24.02
O=C(c1cccnc1)N1CCCC2(COCCN(c3ccccc3)C2)C1 (configuration not stated),11.86
CC(NC(=O)NCCCn1cccn1)c1ccccn1 (configuration not stated),10.08
Cn1cc(CN2C[C@@H]3CN(C(=O)c4cccn4C)CCO[C@@H]3C2)cn1,15.06
O=C(Cn1cccn1)NCC(c1cccs1)N1CCCC1 (configuration not stated),10.56
CCc1[nH]c2c(CNc3nccc(N)n3)cc(C)cc2c1C,23.02

Data taken from ChEMBL document CHEMBL3988442, “University of Dundee, Small-Polar-MMV Screening Library” (2021).